From the supplement of paper PMC10338343 come the findings set out here.

± gives the standard deviation. This is one part of the list. Many of these values have a large error.

For one test, the system named is EfPiwi piRISC loaded with L1MC piRNA (26 nt). The experiment in a line: pre-steady-state target cleavage rate (min^-1); guide: L1MC piRNA 5'p-UAACUAAAUACUAUGCAAGCUGUAGG; MIWI and MILI are mouse PIWI proteins and EfPiwi is from a freshwater sponge; tags in brackets are library labels; higher = faster piRNA-guided slicing of the target. The following applies: auxiliary factor: 500 nM Ephydatia muelleri Gtsf1. As to the method: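 Cleave-'n-Seq: a library of target RNAs (target site in constant flanks) at […] was incubated with 1 nM active freshwater sponge Ephydatia fluviatilis Piwi piRISC (synthetic 5'-monophosphorylated piRNA guide) with or without 500 nM EmGtsf1 at 33 °C for 1 min to 16 h. Uncleaved targets were sequenced and the pooled three trials fitted to a burst-and-steady-state model to give the pre-steady-state cleavage rate (min^-1). Sequence is the target site only. Fits with R² ≤ 0 are excluded.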
As to UCCUGCUACAGUUGCAUAGUAUUUAGUUA, the “pre-steady-state target cleavage rate” value turned out to be 0.0766 ± 0.022.
In the case of UCCUGCUACAGCUAGCAUAGUAUUUACAAA, the “pre-steady-state target cleavage rate” value was found to be 0.00107 ± 0.004.
The same measure, in the same setting: the same measure for UCCUGGAUGAGCUUGCAUAGUAAAAAGUAA: 0.000392 ± 0.021; for UCCUCCUAGUGCUUGCAUAGUAUUUAGUAA: 0.00468 ± 0.002; for UCCUGGAUGAGCUUGCAUUCAAUUUAGUAA: 0.00177 ± 0.008.
For the sequence UCCUGCUAGAGCUUGCAUAGUAUAUAGUUA, the “pre-steady-state target cleavage rate” value turned out to be 0.00471 ± 0.0017.
Regarding UCCUGGAACAGCUUGCAUAGUUUUUAGUAA, the “pre-steady-state target cleavage rate” value was 0.00724 ± 0.0029.
Turning to UCCUGGAACAGCUUGCAUUGUAAUUAGUUA, the “pre-steady-state target cleavage rate” value was determined as 0.00225 ± 0.0022.
As to UCCUGGAUGAGCUUGGAUAGUAUUUAGAUA, the “pre-steady-state target cleavage rate” value came to 0.00144 ± 0.0045.
Still for that read-out and setting: with UCCUGGAUGUCGUUGCAUAGUAAAUAGUUA the figure was 0.000353 ± 0.0071.
UCCUGGAUGAGCUUGCAUACAAUUUAGAAA: the “pre-steady-state target cleavage rate” value was determined as 0.000583 ± 0.0056.
Same read-out and setting: the same measure for UCCUGCUACAGCUUGCAAAGUAAUUAGUUA: 0.00362 ± 0.0019; for UCCUGGUACAGCUUGCUAAGUAUUUAGAAA: 0.00205 ± 0.0037.
Take UCCUCCUACACCUUGCAUAGUAUUUACAAA: the “pre-steady-state target cleavage rate” value is 0.00304 ± 0.0025.
For the sequence UCCUGGAUGAGCAUGCAUAGUAUUUACUUA, the “pre-steady-state target cleavage rate” value is 0.00139 ± 0.0035.
UCCUGGAUGUCGAACGUUCAGUAUUUAGUUA: the “pre-steady-state target cleavage rate” value was 0.000158 ± 0.02.
Same read-out and setting: the same measure for UCCUGGAUGUCGAUGCAUAGUAUUUAUGUUA: 0.000457 ± 0.007; for UCCUGGAUGAGCAAGCAUAGUAUUUACAAA: 0.000668 ± 0.005.
As for UCCUGGAUGUGCUUGCUAUAGUAUUUAGUUA, the “pre-steady-state target cleavage rate” value stood at 0.00236 ± 0.0029.
Regarding UCCUGGAACAGCUUGGUUAGUAUUUUCAAA, the “pre-steady-state target cleavage rate” value stood at 0.000445 ± 0.011.
With UCCUGCUACAGCUUGCAAUCUAUUUUCAAA, the “pre-steady-state target cleavage rate” value was determined as 0.000242 ± 0.011.
Consider UCCUGGAUCAGCUUGCUAUGUAUUUUCAAA, for which the “pre-steady-state target cleavage rate” value is 0.000517 ± 0.01.

Staying with this test, now noted: auxiliary factor: none (no Gtsf1).
Turning to UCCUGGAUGAGCUUGCAUAGUAAAAAGUAA, the “pre-steady-state target cleavage rate” value turned out to be 0.000206 ± 0.02.
In the case of UCCUGGAUGAGCUUGCAUUCAAUUUAGUAA, the “pre-steady-state target cleavage rate” value worked out at 0.000396 ± 0.024.
As for UCCUGCUAGAGCUUGCAUAGUAUAUAGUUA, the “pre-steady-state target cleavage rate” value amounted to 0.00065 ± 0.0099.
UCCUGGAACAGCUUGCAUUGUAAUUAGUUA: the “pre-steady-state target cleavage rate” value was determined as 0.000737 ± 0.01.
In the case of UCCUGGAUGAGCUUGGAUAGUAUUUAGAUA, the “pre-steady-state target cleavage rate” value worked out at 0.000307 ± 0.03.
Take UCCUGGAUGUCGUUGCAUAGUAAAUAGUUA: the “pre-steady-state target cleavage rate” value is 0.000229 ± 0.038.
As for UCCUGGAUGUCGUAGCAUAGUAUAUAGUUA, the “pre-steady-state target cleavage rate” value worked out at 0.000101 ± 0.065.
Regarding UCCUGGAUGAGCUUGCAUACAAUUUAGAAA, the “pre-steady-state target cleavage rate” value was 0.000533 ± 0.015.
Turning to UCCUGCUACAGCUUGCAAAGUAAUUAGUUA, the “pre-steady-state target cleavage rate” value turned out to be 0.000284 ± 0.019.
Regarding UCCUGGUACAGCUUGCUAAGUAUUUAGAAA, the “pre-steady-state target cleavage rate” value is 0.00019 ± 0.041.
In the case of UCCUCCUACACCUUGCAUAGUAUUUACAAA, the “pre-steady-state target cleavage rate” value amounted to 0.00039 ± 0.018.
UCCUGGAUGUCGAACCAUAGUAUUUCAGUUA: the “pre-steady-state target cleavage rate” value was below 0.0001.
On to UCCUGGAUGAGCAUGCAUAGUAUUUACUUA, for which the “pre-steady-state target cleavage rate” value amounted to 0.000328 ± 0.028.
Same read-out and setting: the same measure for UCCUGGAUGUCGAACGUUCAGUAUUUAGUUA: 0.000238 ± 0.025; for UCCUGGAUGAGCAAGCAUAGUAUUUACAAA: 0.000679 ± 0.018.
As for UCCUGGAUGUGCUUGCUAUAGUAUUUAGUUA, the “pre-steady-state target cleavage rate” value is 0.00156 ± 0.0084.
Take UCCUGGAACAGCUUGGUUAGUAUUUUCAAA: the “pre-steady-state target cleavage rate” value turned out to be 0.000186 ± 0.049.
As to UCCUGCUACAGCUUGCAAUCUAUUUUCAAA, the “pre-steady-state target cleavage rate” value was below 0.0001.
